# Screening data

The results are deposited in PubChem (AID546; NCATS, 2006).

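Cell survival in a normal-glomerulus-derived renal mesenchymal line, judged by luciferase light reporting ATP content, read 40 h after dosing.
Percent change in viability at the highest tested concentration against the DMSO and tamoxifen controls; more negative values mean stronger cell killing.
Calls come from curve class, fit quality and efficacy: good-fit complete or strong partial curves are active, flat curves inactive, anything else inconclusive.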

Values are in %.
Common to all entries: at 91.7 µM (top of the series).
All entries here are filed as inconclusive.
These entries are mostly ones the record files as inconclusive; other results of the assay are not listed here.
An entry listed twice with the same setting is a separate test.

| # | compound | activity change (%) |
|---|---|---|
| 1 | `Oc1cc2c(cc1O)[C@H]1c3ccc(O)c(O)c3OC[C@@]1(O)C2` | -49.94 |
| 2 | `Nc1ccc(N=Nc2ccccc2)c(N)n1` | -61.55 |
| 3 | `O=C1OC2(c3cc(Br)c(O)c(Br)c3Oc3c2cc(Br)c(O)c3Br)c2c(Cl)c(Cl)c(Cl)c(Cl)c21` | -40.3 |
| 4 | `CC(C)Nc1ccc(Nc2ccccc2)cc1` | -36.82 |
| 5 | `Clc1ccc(C(c2ccc(Cl)cc2)C(Cl)(Cl)Cl)cc1` | -56.43 |
| 6 | `Clc1ccc(COC(Cn2ccnc2)c2ccc(Cl)cc2Cl)cc1` (stereo not given) | -41.75 |
| 7 | `Cc1cc(Nc2ccc(O)cc2)ccc1N` | -49.14 |
| 8 | `[O]=[Cr](=[O])([OH])[O][Cr](=[O])(=[O])[OH]` | -38.29 |
| 9 | `Cc1ccc2c(c1N)C(=O)c1ccccc1C2=O` | -44.09 |
| 10 | `[O]=[Cr](=[O])([OH])[O][Cr](=[O])(=[O])[OH]` | -49.52 |
| 11 | `O=C(O)c1cc(O)c(O)c(O)c1` | -38.43 |

Repeated from the top, 2 entries:

* Oc1cc2c(cc1O)[C@H]1c3ccc(O)c(O)c3OC[C@@]1(O)C2 | activity change -49.94%
* Nc1ccc(N=Nc2ccccc2)c(N)n1 | activity change -61.55%